Here are results for 48 compounds from PubChem BioAssay AID720706 (Broad Institute, 2013).

The list shows a part of the results.

A short description of the test: reduced GFP signal of wild-type E. coli, primary screen, bacterial rRNA inhibitor project, GFP/RFP fluorescence, OD600, single point (AID 720706). To be noted: E. coli WT GFP vs humanized-ribosome RFP mutants, 24 h; OD600 change: measured here: OD600 growth, DMSO median 0, no signal -100; RFP signal change: measured here: RFP humanized mutant strains, DMSO median 0, no signal -100, concentration not given here.
Turning to `O=P(Nc1nc2ccccc2s1)(c1ccccc1)c1ccccc1`, the OD600 change was -10.9% and the RFP signal change was -0.505%.
In the case of `C[C@H]1OP(=O)(Oc2ccccc2)[C@H](O)[C@H](O)[C@H]1N=[N+]=[N-]` (stereo partly specified), the OD600 change worked out at 16.2% and the RFP signal change is -0.176%.
Taken in the same sequence, the figures for `O=[N+]([O-])c1ncn(CCn2ncnc2[N+](=O)[O-])n1` were 5.76% and -0.565%.
`CC(C)(C)C(=O)NC(Sc1ccncn1)C(Cl)(Cl)Cl` (stereo unspecified): the OD600 change is 7.75% and the RFP signal change was -1.93%.
Consider `O=C(O)CNc1ccc([As](=O)(O)O)cc1`, for which the OD600 change was 18.7% and the RFP signal change worked out at 0.065%.
The matching figures for `COC(=O)C1(C)COP(=O)(Nc2ccccc2)OC1` (stereo unspecified): 13.5% and -2.14%.
As for `O=[N+]([O-])c1cccc(NC2=NCC(CBr)S2)c1` (stereo unspecified), the OD600 change came to 1.42% and the RFP signal change stood at 3.25%.
As for `O=P1(N(CCCl)CCCl)OCCCS1` (stereo unspecified), the OD600 change was 27.2% and the RFP signal change was 2.67%.
The matching figures for `Nc1ccc2c(ccc3cccnc32)n1.O=[N+]([O-])c1cc([N+](=O)[O-])c(O)c([N+](=O)[O-])c1`: -18.8% and -8.55%.
Taken in the same sequence, the figures for `CCOC(=O)c1ccc(NP(C)(=O)Oc2ccc(Cl)cc2)cc1` (stereo unspecified) were -24.1% and -2.5%.
On to `O=C(Nc1cc([As](=O)(O)O)ccc1O)c1ccccc1`, for which the OD600 change is 16.1% and the RFP signal change was 2.79%.
For the compound `CCN(/C(=N/P(=O)(N1CCOCC1)N1CCOCC1)N1CCOCC1)c1ccc(OC)cc1`, the OD600 change was found to be 2.97% and the RFP signal change is 0.345%.
For the compound `COc1ccccc1OP(C)(=O)Nc1ccccc1Br` (stereo unspecified), the OD600 change stood at 1.84% and the RFP signal change was 0.9%.
On to `Nc1ccc([As](=O)(O)c2ccc(N)cc2)cc1`, for which the OD600 change is -0.266% and the RFP signal change is 1.21%.
Taken in the same sequence, the figures for `C[N+]1=C2C=CC=CC=C2SC12C([N+](=O)[O-])=CC([N+](=O)[O-])=C[C-]2[N+](=O)[O-]` (stereo unspecified) were 6.58% and -5.23%.
Taken in the same sequence, the figures for `c1cc(-c2nn[nH]n2)ccc1-c1nn[nH]n1` were 14.1% and -1.34%.
`CC(C)c1nc(Nc2ccccc2)n(P(=O)(N(C)C)N(C)C)n1`: the OD600 change is -1.77% and the RFP signal change came to 1.99%.
Take `CN(C)C(=O)c1c([N+](=O)[O-])cc([N+](=O)[O-])cc1[N+](=O)[O-]`: the OD600 change worked out at 9.41% and the RFP signal change is -0.797%.
Taken in the same sequence, the figures for `CC(C)=N/N=C(\N)N[N+](=O)[O-]` were 6.06% and 1.06%.
The matching figures for `COc1ccc(C2=NCC(CBr)S2)cc1` (stereo unspecified): 4.09% and -7.32%.
The matching figures for `Cc1ccc(NP(=O)(Oc2ccccc2)Oc2ccccc2)nc1`: 19.9% and 2%.
Consider `CCc1ccc(OP(C)(=O)Nc2cccnc2)cc1` (stereo unspecified), for which the OD600 change is -5.51% and the RFP signal change was -1.65%.
For the compound `O=[N+]([O-])c1cc([N+](=O)[O-])c(CCNc2ccccc2)c([N+](=O)[O-])c1`, the OD600 change was found to be 14.1% and the RFP signal change is -1.99%.
With `O=C(OCCCN1CCCC1)C(O)(c1ccccc1)C1CCCCC1` (stereo unspecified), the OD600 change is -10.1% and the RFP signal change worked out at 2.29%.
Taken in the same sequence, the figures for `O=C(NC(Sc1ccncn1)C(Cl)(Cl)Cl)c1ccccc1` (stereo unspecified) were 18.3% and 11.6%.
Turning to `Nc1cc(N)c2nonc2c1[N+](=O)[O-]`, the OD600 change is -9.63% and the RFP signal change is -2.36%.
The matching figures for `CC(C)CC(=O)NC(Sc1ccc(Cl)cc1)C(Cl)(Cl)Cl` (stereo unspecified): -21.8% and -0.815%.
Consider `O=[N+]([O-])c1cc([N+](=O)[O-])c(Nc2ccccn2)c([N+](=O)[O-])c1`, for which the OD600 change is -5.12% and the RFP signal change was -8.23%.
Regarding `CN(C(=O)Cc1ccc(Cl)c(Cl)c1)[C@H]1CCCC[C@H]1N1CCCC1`, the OD600 change worked out at 5.84% and the RFP signal change worked out at 6.75%.
`COc1ccccc1OP(C)(=O)Nc1ccc(Br)cc1` (stereo unspecified): the OD600 change was 2.46% and the RFP signal change is -1.16%.
In the case of `NC(=O)c1cc([N+](=O)[O-])cc([N+](=O)[O-])c1N`, the OD600 change amounted to 6.46% and the RFP signal change is 11.6%.
Regarding `Clc1ccc(Cl)c(NC2=NCC(CBr)S2)c1` (stereo unspecified), the OD600 change is -22.7% and the RFP signal change is -6.18%.
The matching figures for `COc1ccccc1OP(=O)(Nc1ccc(C)cn1)Oc1ccccc1OC`: 28.5% and -0.195%.
On to `Cc1ccc(OP(=O)(Nc2nccs2)Oc2ccc(C)cc2)cc1`, for which the OD600 change turned out to be 16.9% and the RFP signal change worked out at 2.05%.
For the compound `Nc1cccc2ccc([As](=O)(O)O)cc12`, the OD600 change was -1.06% and the RFP signal change was 30.6%.
The matching figures for `CCCCCCCCCCCCCCCC1C[N+](C)(C)CCOP(C)(=O)O1` (stereo unspecified): -74.3% and -20.5%.
With `CP(=O)(Nc1ccc(Cl)cc1Cl)Oc1ccccc1` (stereo unspecified), the OD600 change was -19.5% and the RFP signal change was -6.93%.
Take `CP(=O)(OCCOc1ccccc1)OCCOc1ccccc1`: the OD600 change was -17.1% and the RFP signal change amounted to 4.6%.
The matching figures for `CN(C(=O)Cc1ccccc1)C1CC[C@@]2(CCCO2)C[C@@H]1N1CCCC1` (stereo partly specified): -5% and 3.58%.
Consider `O=C1C(O)=C([N+](=O)[O-])C(=O)C(O)=C1[N+](=O)[O-]`, for which the OD600 change worked out at 20.6% and the RFP signal change came out at 3.86%.
Take `O=P(Nc1nc2ccc(Cl)cc2s1)(c1ccccc1)c1ccccc1`: the OD600 change is -42.2% and the RFP signal change was -15.4%.
The matching figures for `Cc1cc(C)cc(OP(C)(=O)Nc2cccc(C(F)(F)F)c2)c1` (stereo unspecified): 6.82% and 0.454%.
On to `CN(C)P(=O)(N(C)C)n1c(Nc2ccccc2)nnc1-c1ccccc1`, for which the OD600 change was -48.5% and the RFP signal change turned out to be 22.1%.
The matching figures for `CC(=O)Nc1ccc([As](=O)(O)O)cc1`: 12.6% and 1.81%.
In the case of `O=C(O)c1ccccc1[As](=O)(O)O`, the OD600 change worked out at 2.79% and the RFP signal change was -6.05%.
As to `CCCC1OP(N)(=O)OCC1CC` (stereo unspecified), the OD600 change was 10% and the RFP signal change is 9.85%.
For the compound `CCn1c(=O)n(C2CCN(CC3CCCCCCC3)C[C@H]2CO)c2ccccc21` (stereo partly specified), the OD600 change is -9.04% and the RFP signal change stood at 0.481%.
The matching figures for `Cc1ccc(NP(=O)(Oc2ccccc2F)Oc2ccccc2F)nc1`: 12.9% and 2.66%.
